Reference: PubChem BioAssay AID504444 (National Center for Advancing Translational Sciences (NCATS), 2011)
The whole screen tested about 360,000 compounds, of which about 7,500 (2.1%) were called active. Inconclusive means that the source gave no clear call. Such entries were picked first, then a sample of the others. Calls follow the shape of the dose curve; as a rule, active = well fitted inhibition curve with a large enough effect; inconclusive = small, poorly fitted or top-dose-only effect, or effect the other way; inactive = flat fitted curve, though single readings scatter. A potency beside an inconclusive call is a rough fit, not a confirmed value.

assay: Nrf2 qHTS screen for inhibitors; details: A549 ARE-Fluc reporter, luciferase luminescence, 18-24 h; activity change, negative = inhibition: at 46 µM (top of the series); also: nearly all actives have a fitted effect of over 60% in size
In short: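 Concentration-response testing used A549 ARE_Fluc cells at 5000 cells/well. Following an 18-24 h compound incubation, viability was read by fluorescence (Ex 405/Em 525) and luciferase output by luminescence.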
% is scaled to controls: 0 for no effect and ±100 for the full control effect; potency is read from the fitted curve at half-maximal effect.

Row | Compound | Potency | activity change, negative = inhibition
1 | Cc1cc(NC(=O)c2cccc(COc3ccc(Br)cc3)c2)no1 | inconclusive: 2.06 µM [activator, full curve] | 
2 | Fc1cccc(NCCc2c[nH]c3ccccc23)n1 | inconclusive: 29.1 µM [activator, single point] | 
3 | O=C(/C=C/c1ccncc1)c1ccc(NC(=O)c2ccccc2F)cc1 | inconclusive: 23.1 µM [falling, partial curve, poor fit] | 
4 | CC(=O)Nc1nc2ccccc2n1CCOc1ccccc1Cl | inconclusive: 16.4 µM [falling, single point] | 
5 | COc1ccc(C(=O)NC2CCCc3c2cnn3-c2ccccc2F)cc1OC (stereo unspecified) | inconclusive: 16.4 µM [falling, partial curve, poor fit] | 
6 | COc1ccc(N2CCN(C(=O)C3CCCN(S(=O)(=O)c4ccc5c(c4)oc(=O)n5C)C3)CC2)cc1 (stereo unspecified) | inactive | 
7 | Cc1cccc(C(=O)N2CCN(Cc3nc4sc5c(c4c(=O)[nH]3)CCCC5)CC2)c1 | inconclusive: 20.6 µM [falling, single point] | 
8 | CCn1c2ccccc2c2cc(C3C(C#N)=C(C)NC(C)=C3C#N)ccc21 | inconclusive: 20.6 µM [falling, single point] | 
9 | O=C(NCCc1nc2ccccc2n1Cc1ccc(Cl)cc1)c1ccccc1 | inconclusive: 29.1 µM [falling, partial curve, poor fit] | 
10 | CCOC(=O)CC1C(=O)NCCN1C(=O)COc1ccc(Br)cc1C (stereo unspecified) | inconclusive: 6.51 µM [falling, partial curve, poor fit] | 
11 | C=CCn1c(N2CCCC2)nc2c1c(=O)[nH]c(=O)n2C | inconclusive: 25.9 µM [falling, partial curve, poor fit] | 
12 | Cc1ccc([N+](=O)[O-])cc1-c1[nH]c(-c2ccc(O)c(O)c2)nc1-c1ccccc1 | active: 20.6 µM | 
13 | Cc1ccc(C(=O)OCc2cc(=O)n3nc(CC(C)C)sc3n2)cc1 |  | inactive: 21.9%
14 | CC(c1ccccc1)c1nnc(NC(=O)Nc2ccccc2F)s1 (stereo unspecified) | inconclusive: 29.1 µM [activator, single point] | 
15 | CCC1(C)Cc2ccccc2-c2nc(NN)[nH]c(=O)c21 (stereo unspecified) |  | inactive: 6.41%
16 | CCOC(=O)c1c(NC(=O)C2C3C=CC(C3)C2C(=O)O)sc2c1CC(C)(C)OC2 (stereo unspecified) |  | inactive: -11.5%
17 | O=C1Nc2ccccc2/C1=C\c1cccn1-c1ccc(OC(F)(F)F)cc1 | inconclusive: 32.6 µM [falling, single point] | 
18 | COc1ccc(OC)c(C(c2nnnn2Cc2ccco2)N2CCN(C)CC2)c1 (stereo unspecified) |  | inactive: 5.1%
19 | O=[N+]([O-])c1ccc(/C=N/Nc2ccccn2)cc1 |  | inactive: 3.11%
20 | Cc1ccc(NC(=O)c2ccc(-c3ccccc3)s2)cc1 | inconclusive: 7.31 µM [activator, partial curve] | 
21 | Cc1cc(C)nc(/N=C(\N)C2=C(O)CC(C)(C)CC2=O)n1 | inconclusive: 23.1 µM [activator, partial curve, poor fit] | 

Row | Compound | Potency | activity change, negative = inhibition
22 | CC(=O)c1nn(-c2ccc(Br)cc2)cc1C(=O)c1ccco1 | inconclusive: 29.1 µM [falling, single point] | 
23 | COc1ccc(-c2[nH]ncc2CN(C)CCc2c(C)n[nH]c2C)c(F)c1 | inconclusive: 25.9 µM [activator, partial curve, poor fit] | 
24 | CCOc1ccc(N(C(=O)Nc2ccccc2)C2=NCCC2)cc1 | inconclusive: 16.4 µM [activator, partial curve, poor fit] | 
25 | COc1ccc(C(=O)NCC(c2cccs2)N2CCc3ccccc32)cc1OC (stereo unspecified) | inconclusive: 32.6 µM [falling, partial curve, poor fit] | 
26 | O=C(O)c1cccc(NC(=O)c2ccc3c(c2)C(=O)N(CC2CCCO2)C3=O)c1 (stereo unspecified) |  | inactive: 0.137%
27 | Cc1ccnc(NC(=O)CCC2CCCCC2)c1 | inconclusive: 3.66 µM [activator, full curve] | 
28 | COc1ccc(C(=O)CSc2nnc(CNc3ccc(C)cc3C)o2)cc1 | inconclusive: 16.4 µM [falling, partial curve, poor fit] | 
29 | c1ccc(Oc2ccc(-c3ccnc4nc(N5CCOCC5)nn34)cc2)cc1 | inconclusive: 5.8 µM [falling, partial curve, poor fit] | 
30 | O=C(Nc1ccc2oc(-c3ccc(Br)cc3)nc2c1)c1cc2ccccc2o1 | inconclusive: 20.6 µM [activator, partial curve, poor fit] | 
31 | COc1cccc(CNCc2c(C(=O)O)n(Cc3ccc(C)cc3)c3cc(C)ccc23)c1OC | inconclusive: 18.4 µM [falling, single point] | 
32 | CC(=O)c1ccc(NC(=O)c2sc(-n3nc(C)c(Cc4ccc5c(c4)OCO5)c3C)nc2C)cc1 |  | inactive: 12.1%
33 | CCCCCC(C)NC(=S)NC(=O)c1cc(S(=O)(=O)N2CCOCC2)ccc1C (stereo unspecified) | inconclusive: 32.6 µM [falling, single point] | 
34 | O=C(O)c1ccccc1C(=O)Nc1ccc(-c2csc(-c3ccccc3)n2)cc1 | inconclusive: 29.1 µM [activator, single point] | 
35 | O=C(Nc1cccnc1)c1ccc(N2CCCC2)c([N+](=O)[O-])c1 | inconclusive: 29.1 µM [activator, single point] | 
36 | Nc1c(N(CCC2=CCCCC2)C(=O)Cc2ccc(F)cc2)c(=O)[nH]c(=O)n1Cc1ccccc1 | inconclusive: 25.9 µM [falling, partial curve, poor fit] | 
37 | S=C(c1ccc(-c2cccc(Cl)c2)o1)N1CCOCC1 | inconclusive: 5.17 µM [activator, partial curve] | 
38 | O=C(Nc1nc(-c2ccccn2)cs1)c1cc2ccccc2o1 | inconclusive: 2.06 µM [activator, partial curve, poor fit] | 
39 | Cc1cc(Cl)ccc1OCC(=O)NCC(c1cccs1)N1CCOCC1 (stereo unspecified) | active: 18.4 µM | 
40 | O=C(Nc1nc(-c2ccccn2)cs1)C1CC(=O)N(c2ccc3c(c2)OCCO3)C1 (stereo unspecified) | inconclusive: 18.4 µM [falling, single point] | 
41 | CCN(CC)S(=O)(=O)c1ccc(N/N=C(\C)c2ccc(OC)cc2O)nc1 | inconclusive: 29.1 µM [falling, single point] | 

3 compounds out of the list, ordered by molar mass, ascending.
Row | Compound | Potency | activity change, negative = inhibition
11 | C=CCn1c(N2CCCC2)nc2c1c(=O)[nH]c(=O)n2C | inconclusive: 25.9 µM [falling, partial curve, poor fit] | 
3 | O=C(/C=C/c1ccncc1)c1ccc(NC(=O)c2ccccc2F)cc1 | inconclusive: 23.1 µM [falling, partial curve, poor fit] | 
12 | Cc1ccc([N+](=O)[O-])cc1-c1[nH]c(-c2ccc(O)c(O)c2)nc1-c1ccccc1 | active: 20.6 µM | 
